The target in this data set is T1, H-NS (UniProt P0ACF8).
T1 sequence (looked up): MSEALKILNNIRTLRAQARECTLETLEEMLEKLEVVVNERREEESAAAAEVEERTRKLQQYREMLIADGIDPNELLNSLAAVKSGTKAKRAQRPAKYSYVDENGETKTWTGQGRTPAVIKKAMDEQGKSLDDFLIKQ
Nature of the data set: EMSA. The note with it: 10 mM Tris-Cl pH 7.5, 10 mM MgCl2, 10 mM KCl, 100 mM NaCl, 0.5 mM DTT, 5% glycerol, 0.1% BSA, 1 mM spermidine, 25 °C, 5% PAGE in 1xTAE, recombinant protein, residues 1-137, protein details: 6xHis, label: none (GelRed stain), probe letters rebuilt from the primers and the ….

Tags and fusion partners may be left off the protein sequences shown. For at least one entry, the source does not settle the construct or the ends of the probe. Weaker means in comparison with the reference protein, sequence or condition of that experiment.

Regarding “AATAGTAGTACTCCTAACTGAGATATATTTGAATGAATACCTATAGGAAACCTCAATCGGTCAAAATTAGCCCAATAGATAAAAAGATAACCACACACGGAGTGATGTGGCTATCAGTCAATTACATTAAATATCATACAAAAATAAAATATCACTGATGTGACAACATCTATTTTCATTGATTTGATTCAATATAACAATAGATTGCAGTGGATTAACTTCCAGTTGCTTAAAAAATAAAGAAAAAAGTGCGGAAACAGGAGATTTTAAGTGATGTGTAAATTTATGAATGATTTTGTTTATTTATTTTGAAGAACATAAACCATTGTATTTTGTATGGATATGGTTAACTTAATGTTTATTATGATAATTAAGAATCACACTTACAATAACATCAATTAATAAATGGTTAATCATTTTTGATATATCGTAAGAATAATGTAGTTTTTAACACCATCCCTGGTATCTCAACTATCT (double strand) [fimE promoter]”, the binding result was “binds” (MEP preincubated with H-NS (no change in mobility)); “binds” (MEcPP added after H-NS was bound to DNA (no inhibition)); “binds more weakly” (MEcPP preincubated with H-NS before DNA (concentration-dependent decrease)); “binds” (no metabolite, 240 nM H-NS, 30 nM DNA).
